Data taken from patent US20050025768A1.
No constants are given. Whether binding was seen depends on the method and setting. Some binding calls cover weakened binding; strength is not graded here.

Protein sequences, listed by entry. Tags and fused reporters are not part of them. Residues count along the entry.
UniProt Q62401, residues 23-104: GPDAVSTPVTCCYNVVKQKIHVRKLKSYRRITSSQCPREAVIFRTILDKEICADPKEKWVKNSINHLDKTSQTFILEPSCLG
UniProt P10148, residues 24-148: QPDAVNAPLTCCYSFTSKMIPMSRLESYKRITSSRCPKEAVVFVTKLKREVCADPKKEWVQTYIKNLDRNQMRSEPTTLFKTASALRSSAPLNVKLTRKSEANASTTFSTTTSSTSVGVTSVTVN
UniProt P13500, residues 24-99: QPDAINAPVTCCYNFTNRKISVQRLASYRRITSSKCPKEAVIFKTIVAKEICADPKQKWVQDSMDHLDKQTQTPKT

Experiments:
murine MCP-5 (mouse) = murine MCP-5 (mouse) (UniProt Q62401); assay: ELISA, purified mAb 10 ug/ml
[1] = target: murine MCP-1 (JE) (mouse) (UniProt P10148); assay: ELISA, purified mAb 10 ug/ml
human MCP-1 (human) [2] = target: human MCP-1 (human) (UniProt P13500); assay: ELISA, purified mAb 10 ug/ml
murine MCP-3 (mouse) = murine MCP-3 (mouse) (UniProt Q03366); assay: ELISA, purified mAb 10 ug/ml
human MCP-1 (human) [3] = target: human MCP-1 (human) (UniProt P13500); assay: ELISA, hybridoma supernatant
human MCP-1 (human) [4] = target: human MCP-1 (human) (UniProt P13500); assay: summary of Tables 1 and 3 (ELISA)

Measured: binding

B1: 4N4 (antibody, IgG1, V domains shown)
VH: EVQLQQSGAELVKAGASVKLSCPASGLNIKDTYMHWVKQRPEQGLEWIGRIDPANGNTKFDPKFQGKATITADTSSNTAYLQLSSLTSEDTAVYYCARGVFGFFDYWGQGTTLTVSS
VL: DIQMTQSSSSFSVSLGDRVTITCKATEDIYNRLAWYQQKPGSAPRLLISGATSLETGVPSRFSGSGSGKDYTLSITSLQTEDVATYYCQQFWSAPYTFGGGTKLEIK
binds: all assays above

B2: 5A13 (antibody, IgG1, V domains shown)
VH: B1 VH
VL: B1 VL
binds: all assays above

B3: 6D21 (antibody, IgG1, V domains shown)
VH: B1 VH
VL: B1 VL
binds: all assays above

B4: 6I5 (antibody, IgG1, V domains shown)
VH: B1 VH
VL: B1 VL
binds: all assays above

B5: 7H1 (antibody, IgG1, V domains shown)
VH: B1 VH
VL: B1 VL
binds: all assays above
